Measured values reported in publication PMC10094709.
These are yes or no findings as the source states them, for the method shown. In cells and extracts the contact can be indirect. Some results given as binding are weak or reduced against the parent protein; the word gives no strength. For some of these results: Where a sequence is shown, tags or fusion partners need not be part of it. Values belong to the molecule of their own block, whether it stands above or below them.

Protein sequences, listed by entry. Tags and fused reporters are not part of them.
UniProt O95365: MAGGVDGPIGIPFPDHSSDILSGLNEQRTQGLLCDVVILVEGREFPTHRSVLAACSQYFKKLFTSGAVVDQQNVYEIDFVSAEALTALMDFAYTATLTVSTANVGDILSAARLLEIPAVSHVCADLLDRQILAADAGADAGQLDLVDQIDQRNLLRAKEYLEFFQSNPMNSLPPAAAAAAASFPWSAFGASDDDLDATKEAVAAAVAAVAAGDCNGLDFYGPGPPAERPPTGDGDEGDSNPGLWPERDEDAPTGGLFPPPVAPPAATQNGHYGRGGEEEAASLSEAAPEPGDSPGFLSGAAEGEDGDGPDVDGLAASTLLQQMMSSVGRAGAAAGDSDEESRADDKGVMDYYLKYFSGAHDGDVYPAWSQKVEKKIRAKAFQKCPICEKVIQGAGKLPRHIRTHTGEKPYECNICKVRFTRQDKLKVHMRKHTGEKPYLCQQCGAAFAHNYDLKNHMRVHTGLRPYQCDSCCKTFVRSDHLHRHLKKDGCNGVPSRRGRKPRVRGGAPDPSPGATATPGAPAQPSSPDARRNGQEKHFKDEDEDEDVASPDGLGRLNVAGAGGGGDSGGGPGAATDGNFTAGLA
UniProt O88939: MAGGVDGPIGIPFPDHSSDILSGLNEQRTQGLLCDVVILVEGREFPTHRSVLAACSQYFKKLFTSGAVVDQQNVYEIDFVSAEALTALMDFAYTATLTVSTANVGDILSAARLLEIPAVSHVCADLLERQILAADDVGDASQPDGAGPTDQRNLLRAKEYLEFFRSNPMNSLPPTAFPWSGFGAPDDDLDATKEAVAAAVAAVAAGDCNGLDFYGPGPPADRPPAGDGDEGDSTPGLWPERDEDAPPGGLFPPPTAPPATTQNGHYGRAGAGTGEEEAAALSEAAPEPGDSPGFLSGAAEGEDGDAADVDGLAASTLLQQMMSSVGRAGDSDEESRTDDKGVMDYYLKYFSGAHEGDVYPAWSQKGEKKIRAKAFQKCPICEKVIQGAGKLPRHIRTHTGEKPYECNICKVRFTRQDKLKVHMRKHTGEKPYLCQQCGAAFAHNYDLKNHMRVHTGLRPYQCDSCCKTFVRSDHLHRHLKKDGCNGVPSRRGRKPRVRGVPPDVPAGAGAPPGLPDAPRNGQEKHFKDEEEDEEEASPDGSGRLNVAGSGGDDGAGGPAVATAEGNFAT

Columns and labels:
[1] = molecular target: T1, V5-tagged human TG2 (transglutaminase 2) (human) (UniProt P21980); experiment: co-IP; HEK293TN cells co-transfected with V5-TG2 and FLAG/Myc-Zbtb7a, lysed after 24 h in IP lysis buffer (150 mM NaCl, 50 mM Tris-HCl, 1 mM EDTA, 1 mM EGTA, 0.5% NP-40 in PBS); 500 ug lysate; IP with rabbit anti-V5 antibody and protein A/G magnetic agarose, 4 C; immunoblot; the reverse IP is in Figure S4
T1 sequence: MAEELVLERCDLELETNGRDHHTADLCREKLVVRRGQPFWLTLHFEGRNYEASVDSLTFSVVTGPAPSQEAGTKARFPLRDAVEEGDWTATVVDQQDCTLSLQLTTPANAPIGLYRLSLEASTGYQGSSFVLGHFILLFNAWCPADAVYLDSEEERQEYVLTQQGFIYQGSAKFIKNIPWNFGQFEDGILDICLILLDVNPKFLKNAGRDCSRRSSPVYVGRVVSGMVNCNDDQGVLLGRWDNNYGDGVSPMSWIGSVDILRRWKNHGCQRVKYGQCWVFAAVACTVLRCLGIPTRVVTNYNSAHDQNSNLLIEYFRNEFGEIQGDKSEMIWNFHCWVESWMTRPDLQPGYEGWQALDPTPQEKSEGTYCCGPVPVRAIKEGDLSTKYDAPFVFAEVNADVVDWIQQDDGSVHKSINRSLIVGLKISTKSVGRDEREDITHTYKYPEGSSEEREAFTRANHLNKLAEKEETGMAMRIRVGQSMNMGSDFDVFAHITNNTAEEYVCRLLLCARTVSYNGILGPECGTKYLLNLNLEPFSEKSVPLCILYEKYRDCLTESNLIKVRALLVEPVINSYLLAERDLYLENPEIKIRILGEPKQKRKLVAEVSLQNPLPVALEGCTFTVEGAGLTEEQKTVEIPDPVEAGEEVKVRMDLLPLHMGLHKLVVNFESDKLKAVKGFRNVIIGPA

[2] = molecular target: T2, endogenous TG2 (transglutaminase 2) of mouse astrocytes (mouse (endogenous in primary astrocytes)) (UniProt P21981); experiment: co-IP; nuclear fractions of WT mouse astrocytes (NE-PER kit), 110 ug nuclear protein; IP with mouse anti-TG2 or hamster anti-Zbtb7a antibody and protein L magnetic agarose, 4 C; IgG control; immunoblot
T2 sequence: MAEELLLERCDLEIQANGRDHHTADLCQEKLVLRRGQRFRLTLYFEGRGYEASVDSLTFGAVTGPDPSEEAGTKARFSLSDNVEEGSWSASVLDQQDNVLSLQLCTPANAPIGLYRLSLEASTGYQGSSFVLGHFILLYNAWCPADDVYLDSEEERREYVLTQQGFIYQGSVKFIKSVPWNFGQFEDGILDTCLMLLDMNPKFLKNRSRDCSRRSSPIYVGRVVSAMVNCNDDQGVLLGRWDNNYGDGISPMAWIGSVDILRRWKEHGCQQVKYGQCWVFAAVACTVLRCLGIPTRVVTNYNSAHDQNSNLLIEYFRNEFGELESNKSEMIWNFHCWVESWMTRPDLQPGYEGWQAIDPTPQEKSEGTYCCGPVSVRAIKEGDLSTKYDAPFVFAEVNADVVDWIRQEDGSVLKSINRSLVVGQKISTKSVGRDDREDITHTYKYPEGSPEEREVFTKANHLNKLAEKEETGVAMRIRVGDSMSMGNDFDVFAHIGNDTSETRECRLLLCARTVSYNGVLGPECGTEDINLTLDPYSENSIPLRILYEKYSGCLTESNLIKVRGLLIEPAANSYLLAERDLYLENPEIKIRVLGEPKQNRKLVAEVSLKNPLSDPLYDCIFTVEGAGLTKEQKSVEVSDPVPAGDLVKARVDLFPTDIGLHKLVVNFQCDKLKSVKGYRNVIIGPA

FLAG/Myc-tagged Zbtb7a = FLAG/Myc-tagged Zbtb7a (UniProt O95365); experiment: co-IP; HEK293TN cells co-transfected with V5-TG2 and FLAG/Myc-Zbtb7a, lysed after 24 h in IP lysis buffer (150 mM NaCl, 50 mM Tris-HCl, 1 mM EDTA, 1 mM EGTA, 0.5% NP-40 in PBS); 500 ug lysate; IP with rabbit anti-V5 antibody and protein A/G magnetic agarose, 4 C; immunoblot; the reverse IP is in Figure S4
[3] = molecular target: endogenous Zbtb7a of mouse astrocytes (mouse (endogenous in primary astrocytes)) (UniProt O88939); experiment: co-IP; nuclear fractions of WT mouse astrocytes (NE-PER kit), 110 ug nuclear protein; IP with mouse anti-TG2 or hamster anti-Zbtb7a antibody and protein L magnetic agarose, 4 C; IgG control; immunoblot

Molecule: FLAG/Myc-tagged Zbtb7a (from UniProt O95365 1-584)
- binding [1]: binds

B1: V5-tagged human TG2 (transglutaminase 2) (enzyme, UniProt P21980 1-687)
chain: T1 sequence
- binding (FLAG/Myc-tagged Zbtb7a): binds

Now from value to molecule:

- binding [2]: binds
Molecule: endogenous Zbtb7a of mouse astrocytes (from UniProt O88939 1-569)

- binding [3]: binds
B2: endogenous TG2 (transglutaminase 2) of mouse astrocytes (enzyme, UniProt P21981 1-686)
chain: T2 sequence
